Measurements from paper PMC11266705, “Elf1 promotes transcription-coupled repair in yeast by using its C-terminal domain to bind TFIIH” (Nature Communications, 2024).
These are yes or no findings as the source states them, for the method shown. Where a sequence is shown, tags or fusion partners need not be part of it.

Assays:
[1] = biological target: T1, GST-Elf1 N-terminal half (residues 1–85) (S. cerevisiae) (UniProt P36053); assay: pull-down; GST beads with GST-tagged Elf1 proteins mixed with purified PH domain of p62; 23 °C, 1 h; washed twice in 20 mM HEPES pH 7.4, 5% glycerol; SDS-PAGE; both purified
T1 sequence: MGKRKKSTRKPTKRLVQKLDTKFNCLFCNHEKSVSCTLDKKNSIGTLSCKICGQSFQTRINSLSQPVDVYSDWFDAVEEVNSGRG

[2] = biological target: T2, GST-tagged full-length Elf1 (S. cerevisiae) (UniProt P36053); assay: as above
T2 sequence: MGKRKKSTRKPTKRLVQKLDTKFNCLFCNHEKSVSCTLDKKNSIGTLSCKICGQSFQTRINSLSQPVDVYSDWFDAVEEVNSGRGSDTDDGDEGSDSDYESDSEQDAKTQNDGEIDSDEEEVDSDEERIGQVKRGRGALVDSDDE

B1: PH domain (1–115) of TFIIH p62 subunit (domain or fragment, UniProt P32776 1-115)
chain: MSHSGAAIFEKVSGIIAINEDVSPAELTWRSTDGDKVHTVVLSTIDKLQATPASSEKMMLRLIGKVDESKKRKDNEGNEVVPKPQRHMFSFNNRTVMDNIKMTLQQIISRYKDAD
binding [1]: no binding | binding [2]: no binding
